Article PMC3286403
No constants are given. Whether binding was seen depends on the method and setting. A result given as binding can be weak or reduced; the word gives no strength. Where a sequence is shown, tags or fusion partners need not be part of it.

Assays:
[1] = target: His6-tagged HIV-1 integrase wild type (HIV-1); test: pull-down; Ni-NTA (Ni-charged resin) pull-down by His6-IN; 2 μg His6-IN with 2 μg GST protein in 200 μl of 150 mM NaCl, 25 mM imidazole, 2 mM MgCl2, 0.1% NP40, 50 mM Tris HCl pH 7.4, 4 °C; SDS-PAGE and protein staining; both purified
[2] = target: His6-tagged HIV-1 integrase wild type (HIV-1); test: AlphaScreen or HTRF; HTRF; His-IN 80 nM, GST-LEDGF/p75 or GST-TNPO3 5 nM, anti-GST-Europium Cryptate and anti-His-XL665; 25 mM Hepes pH 7.3, 150 mM NaCl, 2 mM MgCl2, 0.1% BSA, 1 mM DTT; read 2 h after incubation; signal as percent of IN WT ΔF; both purified

B1: GST-TNPO3 full length (protein, UniProt Q9Y5L0 1-923)
chain: MEGAKPTLQLVYQAVQALYHDPDPSGKERASFWLGELQRSVHAWEISDQLLQIRQDVESCYFAAQTMKMKIQTSFYELPTDSHASLRDSLLTHIQNLKDLSPVIVTQLALAIADLALQMPSWKGCVQTLVEKYSNDVTSLPFLLEILTVLPEEVHSRSLRIGANRRTEIIEDLAFYSSTVVSLLMTCVEKAGTDEKMLMKVFRCLGSWFNLGVLDSNFMANNKLLALLFEVLQQDKTSSNLHEAASDCVCSALYAIENVETNLPLAMQLFQGVLTLETAYHMAVAREDLDKVLNYCRIFTELCETFLEKIVCTPGQGLGDLRTLELLLICAGHPQYEVVEISFNFWYRLGEHLYKTNDEVIHGIFKAYIQRLLHALARHCQLEPDHEGVPEETDDFGEFRMRVSDLVKDLIFLIGSMECFAQLYSTLKEGNPPWEVTEAVLFIMAAIAKSVDPENNPTLVEVLEGVVRLPETVHTAVRYTSIELVGEMSEVVDRNPQFLDPVLGYLMKGLCEKPLASAAAKAIHNICSVCRDHMAQHFNGLLEIARSLDSFLLSPEAAVGLLKGTALVLARLPLDKITECLSELCSVQVMALKKLLSQEPSNGISSDPTVFLDRLAVIFRHTNPIVENGQTHPCQKVIQEIWPVLSETLNKHRADNRIVERCCRCLRFAVRCVGKGSAALLQPLVTQMVNVYHVHQHSCFLYLGSILVDEYGMEEGCRQGLLDMLQALCIPTFQLLEQQNGLQNHPDTVDDLFRLATRFIQRSPVTLLRSQVVIPILQWAIASTTLDHRDANCSVMRFLRDLIHTGVANDHEEDFELRKELIGQVMNQLGQQLVSQLLHTCCFCLPPYTLPDVAEVLWEIMQVDRPTFCRWLENSLKGLPKETTVGAVTVTHKQLTDFHKQVTSAEECKQVCWALRDFTRLFR
- binding [1]: binds
- binding [2]: binds
